Test results from publication doi:10.1101/2023.08.01.551478, “A feedback control mechanism governs the synthesis of lipid-linked precursors of the bacterial cell wall” (bioRxiv, 2023).
No constants are given. Whether binding was seen depends on the method and setting. Some entries that bind do so weakly or less than the wild type.

Chains of the proteins cited; added tags and fusions are not shown.
UniProt P0A9K9: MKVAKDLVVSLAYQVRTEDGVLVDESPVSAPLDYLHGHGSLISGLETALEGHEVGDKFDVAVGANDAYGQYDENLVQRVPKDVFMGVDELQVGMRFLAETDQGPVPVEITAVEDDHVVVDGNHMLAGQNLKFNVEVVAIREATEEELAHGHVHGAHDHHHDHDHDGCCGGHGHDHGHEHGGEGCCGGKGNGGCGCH

Target: T1, E. coli MraY(T23P) (E. coli) (UniProt P0A6W3)
T1 sequence: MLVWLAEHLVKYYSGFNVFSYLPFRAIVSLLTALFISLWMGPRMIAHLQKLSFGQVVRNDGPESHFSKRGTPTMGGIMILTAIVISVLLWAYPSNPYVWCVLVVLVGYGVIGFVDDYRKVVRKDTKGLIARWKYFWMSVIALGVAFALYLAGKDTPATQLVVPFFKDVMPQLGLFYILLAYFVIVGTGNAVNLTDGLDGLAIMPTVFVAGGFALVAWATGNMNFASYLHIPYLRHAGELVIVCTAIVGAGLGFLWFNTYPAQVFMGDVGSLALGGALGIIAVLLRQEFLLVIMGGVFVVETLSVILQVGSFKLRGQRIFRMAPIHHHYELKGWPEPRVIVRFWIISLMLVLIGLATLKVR
Test: cryo-EM structure; YES complex of EcMraY(T23P), protein E and SlyD, obtained with the methodologies of ref. 31; focused refinement of MraY alone; processed with cryosparc v3.2.0; both purified

With “E. coli chaperone SlyD (from UniProt P0A9K9 1-196)” the binding was “binds”.
